The supplement of paper PMC8007513
Some of the results follow. Most values come without repeats; read them as rough.

Test system: Saccharomyces cerevisiae BY4743
Assay: growth (OD600) with compound + IPBC relative to untreated control; higher = less growth inhibition
Details: compound concentration: 133 uM; IPBC concentration: 0.5 ug/ml; 20 h
Experimental: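 NMCCC compounds (133 uM) combined with IPBC (0.5 ug/ml) against Saccharomyces cerevisiae BY4743 in YPD, 96-well plates. Growth was read as OD600 at 20 h and expressed as % of the untreated control. Single pass.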

| Compound | growth [%] |
| --- | --- |
| Cc1oc(-c2ccccc2)nc1COC(=O)c1ccc(S(=O)(=O)C(F)F)cc1 + CCCCNC(=O)OCC#CI [3-iodo-2-propynyl butylcarbamate (IPBC)] | 92.7 |
| CCN(C(=O)NCc1noc2ccc(C)cc12)c1cccc(Cl)c1 + CCCCNC(=O)OCC#CI [3-iodo-2-propynyl butylcarbamate (IPBC)] | 87 |
| CCOC(=O)c1[nH]c(C)c(C(=O)Nc2cccc(Cl)c2C)c1C + CCCCNC(=O)OCC#CI [3-iodo-2-propynyl butylcarbamate (IPBC)] | 93.6 |
| COc1ccc(Cl)cc1C(=O)NCCc1ccc(-n2cccn2)cc1 + CCCCNC(=O)OCC#CI [3-iodo-2-propynyl butylcarbamate (IPBC)] | 84.7 |
| CC(=O)Nc1nc(COC(=O)CNC(N)=O)cs1 + CCCCNC(=O)OCC#CI [3-iodo-2-propynyl butylcarbamate (IPBC)] | 89.6 |
| CCN1CCN(c2ccccc2NS(=O)(=O)c2cc(Br)cc(C(=O)O)c2F)CC1 + CCCCNC(=O)OCC#CI [3-iodo-2-propynyl butylcarbamate (IPBC)] | 103 |
| Cn1cc(S(=O)(=O)N2CCCC2)cc1C(=O)OC(c1cc(F)cc(F)c1)C(F)(F)F (centres undefined) + CCCCNC(=O)OCC#CI [3-iodo-2-propynyl butylcarbamate (IPBC)] | 113 |
| CN(C1CCCCC1)C(=O)\C2=C\C(=N/[S](=O)(=O)N2C)C3=CC=C(F)C=C3 + CCCCNC(=O)OCC#CI [3-iodo-2-propynyl butylcarbamate (IPBC)] | 98.4 |
| CC(C)c1nccn1-c1ccc(NC(=O)c2ccc(N(C)C)cc2)cc1 + CCCCNC(=O)OCC#CI [3-iodo-2-propynyl butylcarbamate (IPBC)] | 94.2 |
